Laboratory results: PubChem BioAssay AID504804 (Drosophila RNAi Screening Center, 2011)
The deposit covers about 19,000 reagents; shown is a random part of those that have a named target and a result. In the full data, 47 (0.25%) got an active call. 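Signals are raw, not normalised; exact z-scores behind calls not deposited; actives needed confirmation, so some wells reaching 2 SD are inactive.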 Reagents against one gene are numbered here. Names joined by + are all predicted targets of the reagent.

- Purpose: 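dsRNAs that improve Kc cell survival under doxorubicin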 (primary screen)
- System: Drosophila Kc cells
- Reagent: long dsRNA against Drosophila genes, 0.5 µg dsRNA per well
- Timing: 96 h (48 h knock-down, then 48 h drug)
- Conditions: doxorubicin 5 µg/ml for 48 h, added 48 h after dsRNA
- Measurement: 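Luminescent ATP counts per replicate, not normalised, reflecting viable cells after 48 h dsRNA knock-down followed by 48 h of 5 µg/ml doxorubicin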
- Direction: raw ATP luminescence: higher = more viable cells, protection from doxorubicin
- Active means: 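z-score of 2 or more over plate mean in both duplicates, retained only when retests and separate dsRNAs confirm the protection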

no.	gene	reagent	SD above plate mean	raw ATP luminescence, replicate 1	raw ATP luminescence, replicate 2	outcome
1	CG14111	1		77953	83067	inactive
2	Cluap1	1		3.63e5	3.46e5	inactive
3	CG32944	1		61550	55220	inactive
4	CG32944	2		65550	68913	inactive
5	CG14459	1		21793	23600	inactive
6	tipE	1		33970	34577	inactive
7	Mob4	1		68497	57763	inactive
8	Obp8a	1		3.23e5	3.40e5	inactive
9	CG15225	1		50670	49680	inactive
10	CG30089	1		57107	57677	inactive
11	CG30089	2		1.73e5	1.90e5	inactive
12	Hn	1		40197	34777	inactive
13	Mettl2	1		63550	69623	inactive
14	Tat	1		3.37e5	3.07e5	inactive
15	numb	1		90407	56313	inactive
16	CG17683	1		4.08e5	3.65e5	inactive
17	Unc50	1		49423	56177	inactive
18	CG3434	1		45137	33150	inactive
19	Or85f	1		52977	47830	inactive
20	eff	1		55100	55050	inactive
21	Smg5	1		71060	51837	inactive
22	CG10019	1		19423	16800	inactive
23	sicily	1		3.54e5	3.21e5	inactive
24	mxt	1		1.02e5	70050	inactive
25	ScpX	1		91543	80700	inactive
26	CG34125	1		2.65e5	2.03e5	inactive
27	CG14837	1		92790	86870	inactive
28	CG9691	1		3.50e5	3.47e5	inactive
29	CG9284 (retired record)	1		55153	43960	inactive
30	CG9284 (retired record)	2		86153	65147	inactive

Look-ups from the list.
Entry of numb under “outcome”: inactive
CG10019, raw ATP luminescence, replicate 1 → 19423
CG17683, raw ATP luminescence, replicate 1: 4.08e5
For “raw ATP luminescence, replicate 2”, Tat reads 3.07e5
Value of CG9284 (retired record) #2 in “outcome”: inactive
Mob4, outcome = inactive

Continued.
no.	gene	reagent	SD above plate mean	raw ATP luminescence, replicate 1	raw ATP luminescence, replicate 2	outcome
31	teq	1		73663	70590	inactive
32	teq	2		54557	73253	inactive
33	teq	3		65043	71553	inactive
34	PGAP2	1		58440	37833	inactive
35	CG33679	1		2.50e5	2.75e5	inactive
36	CG14891	1		36683	40347	inactive
37	CG5953	1		2.12e5	2.39e5	inactive
38	CG5953	2		19277	24437	inactive
39	scu	1		3.45e5	3.52e5	inactive
40	RpL24-like	1		66157	50940	inactive
41	CG42540	1		24093	13573	inactive
42	CG42540	2		67370	71507	inactive
43	CG42540	3		55910	48333	inactive
44	pigeon	1		83523	80557	inactive
45	CR42545	1		30607	31837	inactive
46	CG14005	1		1.01e5	57090	inactive
47	CG32808	1		2.33e5	2.18e5	inactive
48	CG8547	1		74577	70507	inactive
49	mnd	1	at least 2 SD above plate mean	1.04e5	82583	active
50	Alg2	1		42260	66430	inactive
51	sws	1		2.15e5	2.42e5	inactive
52	l(2)gd1	1		95453	82320	inactive
53	CG13585	1		52317	52690	inactive
54	CG16800	1		64773	73143	inactive
55	CG15306	1		3.03e5	2.90e5	inactive
56	CG15306	2		3.63e5	3.55e5	inactive
57	Pif1	1		1.12e5	61970	inactive
58	Oat	1		21187	19677	inactive
59	mei-S332	1		75007	61660	inactive
60	rho-4	1		4.25e5	3.25e5	inactive
61	CG10543	1		41567	45607	inactive
62	128up	1		61037	44070	inactive
63	CG30098	1		51577	48773	inactive
64	Top1	1		2.48e5	2.73e5	inactive
65	betaTub97EF	1		57590	30250	inactive
66	betaTub97EF	2		66860	51960	inactive
67	betaTub97EF	3		57210	43190	inactive
68	Kmn1	1		2.50e5	2.46e5	inactive
69	Epp	1		43480	46097	inactive
70	prt	1		57360	55440	inactive
71	CG9932	1		57893	60913	inactive
72	Ptip	1		72777	42077	inactive
73	Ptip	2		59690	37790	inactive
74	Elba3	1		98097	72550	inactive
75	Ude	1		43150	37783	inactive
76	gammaSnap2	1		55893	53320	inactive
77	CG14969	1		46860	34187	inactive
78	CG6661	1		23243	30107	inactive
79	CG18135	1		25663	34590	inactive
80	Gip	1		1.66e5	2.05e5	inactive
81	CG15927	1		3.15e5	2.90e5	inactive
82	b	1		72070	1.08e5	inactive
83	CG34007	1		77830	73037	inactive
84	CadN2 + CG42830	1		58213	70037	inactive
85	CadN2 + CG42830	2		59090	70920	inactive
86	CadN2 + CG42830	3		65503	70537	inactive
